Reference: PubChem BioAssay AID328 (DTP/NCI, 2004)
The list shows only some results of the screen, not a fair sample: it is rich in T/C values a quarter to a half above the control, in often repeated tests (any T/C) and in doses without a T/C. Other doses and runs of a compound stand elsewhere. T/C: endpoint of the treated group in % of that of the vehicle group. Some doses have a count of surviving animals in place of a T/C: the source holds a T/C of zero for them, seemingly a mark for toxic or unscored doses. Some doses without a T/C left all or most animals alive at the check, yet need not have been tolerated: survival well below the control is almost never listed, so the zero probably covers shortened survival too. Counts of survivors are from the toxicity check (mostly the fifth day) where no day follows; animals may have died later. Schedules are NCI's codes, taken here to give the interval after Q, in days (D) or hours (H), and the number of doses after X. Some entries were tested several times; their values stand side by side, smallest first. Where survival is the endpoint, the PubChem record calls one and a half times the control and up active, and a quarter to a half above the control has no call in these data; cut-offs in other NCI protocols can differ. Some T/C values carry the count of animals alive at the toxicity check (mostly the fifth day); without a count, all were alive then.

Test system: BDF1 mice, P388 leukemia ip, median survival T/C
Test: NCI In Vivo Anticancer Drug Screen. Data for tumor model P388 Leukemia (intraperitoneal) in B6D2F1 (BDF1) mice
Conditions: T/C endpoint: median survival time, higher T/C = longer survival
How it was run: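 Survival ratio, drug arm over vehicle arm, in mice with a transplanted tumour.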

[1] = dose: 100.0 mg/kg/injection, schedule: Q04DX003 (ip), vehicle: saline with Tween-80
[2] = dose: 200.0 mg/kg/injection, schedule: Q04DX003 (ip), vehicle: saline with Tween-80
[3] = dose: 400.0 mg/kg/injection, schedule: Q04DX003 (ip), vehicle: saline with Tween-80
[4] = dose: 200.0 mg/kg/injection, schedule: Q01DX009 (ip), vehicle: saline with Tween-80

Structure (SMILES): CC(C)(C)[O][Pb]([c]1ccccc1)([c]1ccccc1)[c]1ccccc1
- T/C (dose: 0.78 mg/kg/injection, schedule: Q01DX009 (ip), vehicle: saline): 127 % of control
- survivor count (dose: 5.3 mg/kg/injection, schedule: Q01DX009 (ip), vehicle: saline): 2 of 6
- survivor count (dose: 7.9 mg/kg/injection, schedule: Q01DX009 (ip), vehicle: saline): 1 of 6
- survivor count (dose: 11.0 mg/kg/injection, schedule: Q04DX003 (ip), vehicle: saline): 3 of 6
- survivor count (dose: 11.5 mg/kg/injection, schedule: Q01DX001 (ip), vehicle: Klucel (hydroxypropylcellulose) (HPC)): 0 of 6
- survivor count (dose: 23.0 mg/kg/injection, schedule: Q01DX001 (ip), vehicle: Klucel (hydroxypropylcellulose) (HPC)): 1 of 6

Structure (SMILES): C1=C(c2ccccc2)OC(c2ccccc2)C1c1ccccc1 (stereo not drawn)
- survivor count (dose: 100.0 mg/kg/injection, schedule: Q01DX005 (ip), vehicle: saline with Tween-80): 5 of 5

Structure (SMILES): O=C1C(N2CC2)=C(N2CC2)C(=O)C(N2CC2)=C1N1CC1
- T/C (dose: 0.04 mg/kg/injection, schedule: Q01DX009 (ip), vehicle: saline): 145 % of control
- survivor count (dose: 0.08 mg/kg/injection, schedule: Q01DX009 (ip), vehicle: saline): 6 of 6
- T/C (dose: 0.1 mg/kg/injection, schedule: Q04DX003 (ip), vehicle: saline with Tween-80): 133 % of control
- T/C (dose: 0.13 mg/kg/injection, schedule: Q04DX003 (ip), vehicle: saline with Tween-80): 131 % of control
- survivor count (dose: 0.16 mg/kg/injection, schedule: Q01DX009 (ip), vehicle: saline): 5 of 6 and 6 of 6
- T/C (dose: 0.17 mg/kg/injection, schedule: Q04DX003 (ip), vehicle: other): 127 % of control
- survivor count (dose: 0.38 mg/kg/injection, schedule: Q04DX003 (ip), vehicle: other): 6 of 6
- survivor count (dose: 6.25 mg/kg/injection, schedule: Q04DX003 (ip), vehicle: saline with Tween-80): 0 of 6
- survivor count (dose: 12.5 mg/kg/injection, schedule: Q04DX003 (ip), vehicle: saline with Tween-80): 0 of 6
- survivor count (dose: 25.0 mg/kg/injection, schedule: Q04DX003 (ip), vehicle: saline with Tween-80): 0 of 6
- survivor count [1]: 0 of 6
- survivor count [2]: 0 of 6
- survivor count [3]: 0 of 6
- T/C (dose: 4.4 micrograms/kg/injection, schedule: Q01DX009 (ip), vehicle: saline with Tween-80): 133 % of control
- T/C (dose: 13.3 micrograms/kg/injection, schedule: Q01DX009 (ip), vehicle: saline with Tween-80): 141 % of control
- T/C (dose: 15.0 micrograms/kg/injection, schedule: Q01DX009 (ip), vehicle: saline with Tween-80): 138 % of control
- survivor count (dose: 250.0 micrograms/kg/injection, schedule: Q01DX009 (ip), vehicle: saline with Tween-80): 6 of 6

Structure (SMILES): Cc1nc(N)c(Cl)nc1C
- T/C [1]: 127 % of control
- survivor count [1]: 6 of 6
- survivor count [3]: 6 of 6

Structure (SMILES): O=C(NO)c1cccnc1
- T/C (dose: 445.0 mg/kg/injection, schedule: Q01DX010 (ip), vehicle: water): 126 % of control [5 of 6 alive]
- T/C (dose: 670.0 mg/kg/injection, schedule: Q01DX010 (ip), vehicle: water): 138 % of control
- survivor count (dose: 1000.0 mg/kg/injection, schedule: Q01DX010 (ip), vehicle: water): 1 of 6

Structure (SMILES): O=C[C@@H](CO)O[C@H](C=O)n1cnc2c(=O)[nH]cnc21
- T/C (dose: 108.0 mg/kg/injection, schedule: Q04DX003 (ip), vehicle: water): 147 % of control
- survivor count (dose: 500.0 mg/kg/injection, schedule: Q04DX003 (ip), vehicle: water): 1 of 8 and 2 of 8

Structure (SMILES): O=C(O)/C=N/NS(=O)(=O)/C=C/c1ccccc1
- T/C (dose: 12.5 mg/kg/injection, schedule: Q01DX009 (ip), vehicle: other): 129 % of control
- T/C (dose: 25.0 mg/kg/injection, schedule: Q01DX009 (ip), vehicle: other): 140 % of control
- survivor count (dose: 200.0 mg/kg/injection, schedule: Q01DX009 (ip), vehicle: other): 5 of 6
- survivor count (dose: 400.0 mg/kg/injection, schedule: Q01DX009 (ip), vehicle: other): 0 of 6

Structure (SMILES): Cc1nnc2sc3c(Cl)c4nn5c(C)nnc5sc4c(Cl)c3nn12
- survivor count [4]: 3 of 6

Structure (SMILES): CCCCOc1ccc(C(=O)NN)cc1
- survivor count [4]: 4 of 6

Structure (SMILES): Cc1cc(=O)[nH]c(N/N=C/C(C)C)n1
- survivor count (dose: 200.0 mg/kg/injection, schedule: Q01DX009 (ip), vehicle: Klucel (hydroxypropylcellulose) (HPC)): 6 of 6
- survivor count (dose: 400.0 mg/kg/injection, schedule: Q01DX009 (ip), vehicle: Klucel (hydroxypropylcellulose) (HPC)): 0 of 6

Structure (SMILES): CSc1nc2[nH]cnc(=S)c2[nH]1
- survivor count [1]: 1 of 6
- survivor count [2]: 1 of 6
- survivor count [3]: 0 of 6

Structure (SMILES): CN1C(=O)C23CC4=CC=CC(O)C4N2C(=O)C1(CO)SS3 (stereo not drawn)
- survivor count (dose: 1.5 mg/kg/injection, schedule: Q01DX009 (ip), vehicle: saline with Tween-80): 2 of 3
- survivor count (dose: 3.0 mg/kg/injection, schedule: Q01DX009 (ip), vehicle: saline with Tween-80): 3 of 3

Structure (SMILES): CCOC(=O)/C=C\CBr
- survivor count (dose: 96.0 mg/kg/injection, schedule: Q01DX010 (ip), vehicle: saline): 4 of 6

Structure (SMILES): C=C(C)C(=O)O[C@H]1C[C@@]23O[C@@H]2CCC(=C[C@H]2OC(=O)C(=C)[C@H]12)COC3O (stereo partly drawn)
- survivor count (dose: 37.5 mg/kg/injection, schedule: Q01DX009 (ip), vehicle: saline): 3 of 6
- survivor count (dose: 75.0 mg/kg/injection, schedule: Q04DX003 (ip), vehicle: saline): 1 of 6

Structure (SMILES): CN(Cc1ccccc1)c1ccc(/C=C/c2ccnc3ccccc23)cc1
- survivor count (dose: 200.0 mg/kg/injection, schedule: Q01DX001 (ip), vehicle: saline with Tween-80): 5 of 6

Structure (SMILES): Cc1ccc(N=C=O)cc1[N+](=O)[O-]
- survivor count (dose: 12.5 mg/kg/injection, schedule: Q01DX009 (ip), vehicle: gum acacia): 6 of 6

Structure (SMILES): Cc1cccc2cc3cccc(C)[n+]3cc12
- survivor count (dose: 10.0 mg/kg/injection, schedule: Q01DX010 (ip), vehicle: saline): 0 of 6
- survivor count (dose: 20.0 mg/kg/injection, schedule: Q01DX010 (ip), vehicle: saline): 0 of 6
- survivor count (dose: 40.0 mg/kg/injection, schedule: Q01DX010 (ip), vehicle: saline): 0 of 6

Structure (SMILES): Cc1ccc2c(ccc(/C=C/c3ccc(O)c4ncccc34)[n+]2C)c1
- survivor count (dose: 150.0 mg/kg/injection, schedule: Q01DX009 (ip), vehicle: Klucel (hydroxypropylcellulose) (HPC)): 1 of 6
- survivor count (dose: 300.0 mg/kg/injection, schedule: Q01DX009 (ip), vehicle: Klucel (hydroxypropylcellulose) (HPC)): 1 of 6

Structure (SMILES): O=C(COc1ccc(Cl)cc1Cl)Oc1c(Cl)c(Cl)c(Cl)c(Cl)c1Cl
- survivor count [2]: 6 of 6

Structure (SMILES): Clc1ccc(N=C(SSC(Cl)(Cl)Cl)SSC(Cl)(Cl)Cl)cc1
- survivor count (dose: 100.0 mg/kg/injection, schedule: Q01DX009 (ip), vehicle: saline with Tween-80): 6 of 6

Structure (SMILES): NOCc1ccsn1
- survivor count (dose: 100.0 mg/kg/injection, schedule: Q04DX003 (ip), vehicle: other): 6 of 6

Structure (SMILES): Cc1cc(N(CCO)CCO)c2cc3ccc4cccc5ccc(c2n1)c3c45
- survivor count [2]: 6 of 6
- survivor count [3]: 1 of 6

Structure (SMILES): CN(C)c1ccc(/C=C/c2ccnc3ccccc23)c(Cl)c1
- survivor count (dose: 400.0 mg/kg/injection, schedule: Q01DX009 (ip), vehicle: saline with Tween-80): 3 of 6

Structure (SMILES): Nc1ccn([C@@H](C=O)O[C@@H](C=O)CO)c(=O)n1
- T/C (dose: 13.3 mg/kg/injection, schedule: Q01DX009 (ip), vehicle: saline): 127 % of control
- T/C (dose: 20.0 mg/kg/injection, schedule: Q01DX009 (ip), vehicle: saline): 144 % of control
- T/C (dose: 30.0 mg/kg/injection, schedule: Q01DX009 (ip), vehicle: saline): 144 % of control
- T/C (dose: 44.0 mg/kg/injection, schedule: Q01DX009 (ip), vehicle: saline): 137 % of control
- T/C (dose: 66.0 mg/kg/injection, schedule: Q01DX009 (ip), vehicle: saline): 145 % of control
- T/C (dose: 100.0 mg/kg/injection, schedule: Q01DX009 (ip), vehicle: saline): 145 % of control
- T/C (dose: 100.0 mg/kg/injection, schedule: Q04DX003 (ip), vehicle: saline): 145 % of control
